This note sets out measurements from article PMC2928299.

For this experiment, the target named is T1, SBP-Flag Rnd3 (mouse) (UniProt P61588).
T1 sequence: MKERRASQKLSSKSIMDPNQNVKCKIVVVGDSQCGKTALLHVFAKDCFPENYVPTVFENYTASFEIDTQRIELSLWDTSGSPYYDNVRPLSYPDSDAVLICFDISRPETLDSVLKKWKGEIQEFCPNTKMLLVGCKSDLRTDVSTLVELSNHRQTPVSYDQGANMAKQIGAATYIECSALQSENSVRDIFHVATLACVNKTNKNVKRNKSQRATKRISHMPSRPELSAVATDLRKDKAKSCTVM
Nature of the experiment: pull-down; streptavidin (SBP) pull-down from lysates of co-transfected 293T cells, SBP-Flag GTPase as bait; beads 1 h at 4°C, 3 washes, elution with 2 mM biotin; immunoblot for Flag. For orientation: In western blotting, separated proteins are transferred to a membrane and probed.

No constants are given. Whether binding was seen depends on the method and setting. In cells and extracts the contact can be indirect. A result given as binding can be weak or reduced; the word gives no strength. Sequences can lack the tags named with a protein.

Take “zebrafish Syx RBD(173–246) (domain or fragment)”: the binding result is on record as “binds”.
